Assay [1] addresses recombinant human BCMA protein having a C-terminal Fc tag (ACRO Biosystems, Cat No.: BC7-H5254) (human) (UniProt Q02223). In words: phage ELISA: plate coated with recombinant human BCMA protein (Fc control protein in parallel) or CHO-BCMA cells; phage supernatant, HRP anti-M13, A450. For orientation: In an ELISA, binding on a coated surface is turned into a signal by an enzyme label.

Sequences of proteins named here, by UniProt entry; tags and fusion partners are left off. Residues count along the entry.
UniProt Q02223, residues 1-54: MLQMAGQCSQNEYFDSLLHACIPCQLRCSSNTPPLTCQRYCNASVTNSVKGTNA

Assay [2] deals with T1, recombinant human CD38 protein having a C-terminal His tag (ACRO Biosystems, Cat No.: CD8-H5224) (human) (UniProt P28907).
T1 sequence (looked up): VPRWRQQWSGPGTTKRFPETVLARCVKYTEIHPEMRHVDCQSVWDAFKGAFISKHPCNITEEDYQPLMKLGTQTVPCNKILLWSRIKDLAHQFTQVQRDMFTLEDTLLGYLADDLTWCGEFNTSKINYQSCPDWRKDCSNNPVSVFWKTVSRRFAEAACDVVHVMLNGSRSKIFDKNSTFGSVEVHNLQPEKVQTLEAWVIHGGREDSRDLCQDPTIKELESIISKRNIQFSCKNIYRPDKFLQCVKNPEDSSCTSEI
In words: phage ELISA on the recombinant antigen, by a process similar to the one described for BCMA.

Assay [3] concerns the target T2, recombinant human CD20 protein having a C-terminal Fc tag (ACRO Biosystems, Cat No.: CD0-H526a) (human) (UniProt P11836).
T2 sequence (looked up): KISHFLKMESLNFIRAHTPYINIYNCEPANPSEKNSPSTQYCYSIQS
Described as above.

No constants are given. Whether binding was seen depends on the method and setting. Some entries that bind do so weakly or less than the wild type. For part of these data: Tags and fused reporters may be left off the sequences shown.

This passage reports binding results from US20180230225A1 (LEGEND BIOTECH USA, published 2018).

B1: 269A37348 (VHH)
VHH: QVKLEESGGRLVQPRGSLRLSCAGSGRTFSTYGMAWFRQAPGKEREFVASKASMNYSGRTYYADSVKGRFTIARDNAKNMVFLQMNNLKPEDTAVYYCAAGTGCSTYGCFDAQIIDYWGKGTLVTVSS
For B1, the binding entry in assay [1] was “binds”.

B2: 38A37730 (VHH)
VHH: AVQLVDSGGGLAQTGGSLRLSCAASQGIFTINAMGWYRQVPGKQRELVAEVSSGGRTDYADSVKGRFTISRDNAKNTVYLQMNSLKPEDTGVYYCRVSGWHVFVGDRIVWGQGTLVTVSS
Regarding B2, the binding result in assay [2] is “binds”.

B3: CD20 VHH (VHH)
VHH: PVQLVESGGGLVQAGDSLRLSCAASGRTFGIGTMGWFRQPPGKEREFVAAIRWSTGGTRYADSVKGRFTISRDNAKLTVDLQMDSLKPEDTAVYYCAADRLSLDLSGRYHYNPAVYDYWGQGTQVTVSS
Consider B3, for which the binding result in assay [3] is listed as “binds”.
